Reference: the supplement of paper PMC10626197

Test system: MCF7
Experiment: cell viability relative to DMSO control (raw), single agent; higher = more viable cells
Conditions: exposure time 72 h
Protocol: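 MCF7 cells, 1000 cells/well in 384-well plates, single-agent wells of drug 2 (drug 1 at 0 µM) within 6x6 combination matrices (1:3 serial dilutions), 72 h at 37 °C. Viability read by CellTiter-Glo luminescence, 3 biological replicates. Normalised viability sets 0% at the highest doxorubicin dose and 100% at the 0,0 µM control per combination.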

Cc1[nH]c(/C=C2\C(=O)Nc3ccccc32)c(C)c1CCC(=O)O [Orantinib]
plate partner (at 0 µM): Hydroxyurea
Conditions	cell viability [%]
0.320988 µM	93.3
0.962963 µM	86.5
2.88889 µM	87.6
8.66667 µM	94.8
26 µM	76.6

C[C@@H](Nc1ncnc2[nH]c(-c3ccc(O)cc3)cc12)c1ccccc1 [PKI-166]
plate partner (at 0 µM): Axitinib
Conditions	cell viability [%]
0.123457 µM	102
0.37037 µM	104
1.11111 µM	108
3.33333 µM	104
10 µM	83.6

C=CC(=O)N1CCC(Oc2cc3c(Nc4ccc(Cl)c(Cl)c4F)ncnc3cc2OC)CC1 [Poziotinib]
plate partner (at 0 µM): Mitoxantrone
Conditions	cell viability [%]
0.246914 µM	91.1
0.740741 µM	89.8
2.22222 µM	70.3
6.66667 µM	71.6
20 µM	80.5

C[C@]12C=CC(=O)C=C1CC[C@@H]1[C@@H]2[C@@H](O)C[C@@]2(C)[C@H]1CC[C@]2(O)C(=O)CO [Prednisolone]
cell viability [%]
Conditions	0.0617284 µM	0.185185 µM	0.555556 µM	1.66667 µM	5 µM
plate partner (at 0 µM): Lapatinib	83.8	90.2	87.8	87.9	88.9
plate partner (at 0 µM): Pazopanib	80.4	81.8	86.79	94.9	102

CC(=O)[C@H]1CC[C@H]2[C@@H]3CCC4=CC(=O)CC[C@]4(C)[C@H]3CC[C@]12C [Progesterone]
cell viability [%]
Conditions	0.0493827 µM	0.148148 µM	0.444444 µM	1.33333 µM	4 µM
plate partner (at 0 µM): Axitinib	91.7	80.1	83.8	71.9	69.5
plate partner (at 0 µM): ixabepilone	99	98.2	99.5	96.3	97.2

CCCCC[C@H](O)/C=C/[C@H]1[C@H](O)CC(=O)[C@@H]1CCCCCCC(=O)O [Prostaglandin E1]
plate partner (at 0 µM): Tamoxifen
Conditions	cell viability [%]
0.617284 µM	118
1.85185 µM	122
5.55556 µM	112
16.6667 µM	103
50 µM	79.6

CCOC(=O)[C@H](CCc1ccccc1)N[C@@H](C)C(=O)N1[C@H](C(=O)O)C[C@@H]2CCC[C@@H]21 [Ramipril]
plate partner (at 0 µM): Vandetanib
Conditions	cell viability [%]
0.0617284 µM	110
0.185185 µM	108
0.555556 µM	109
1.66667 µM	113
5 µM	108

CO[C@H]1C[C@@H]2CC[C@@H](C)[C@@](O)(O2)C(=O)C(=O)N2CCCC[C@H]2C(=O)O[C@H]([C@H](C)C[C@@H]2CC[C@@H](O)[C@H](OC)C2)CC(=O)[C@H](C)/C=C(\C)[C@@H](O)[C@@H](OC)C(=O)[C@H](C)C[C@H](C)/C=C/C=C/C=C/1C [Rapamycin]
plate partner (at 0 µM): Megestrol
Conditions	cell viability [%]
0.0864198 µM	80
0.259259 µM	79.4
0.777778 µM	79
2.33333 µM	79.8
7 µM	77.8

CN(C)C(=O)c1cc2cnc(Nc3ccc(N4CCNCC4)cn3)nc2n1C1CCCC1 [Ribociclib]
cell viability [%]
Conditions	0.123457 µM	0.37037 µM	1.11111 µM	3.33333 µM	10 µM
plate partner (at 0 µM): Cabazitaxel	87.8	85.5	85.6	89.6	83.8
plate partner (at 0 µM): Vemurafenib	92.3	92.8	88.7	84.7	84
plate partner (at 0 µM): ixabepilone	100	95.3	93.1	96.6	97.6

CN1CCN(c2nc(C3=C(c4c[nH]c5ccccc45)C(=O)NC3=O)c3ccccc3n2)CC1 [Sotrastaurin]
cell viability [%]
Conditions	0.0123457 µM	0.037037 µM	0.111111 µM	0.333333 µM	1 µM
plate partner (at 0 µM): Cabazitaxel	81.8	82.7	80.2	77	72.8
plate partner (at 0 µM): Vincristine	95.3	88.7	97.1	94.5	90.4

C=CC(=O)Nc1cccc(Nc2nc(Nc3ccc(OCCOC)cc3)ncc2F)c1 [Spebrutinib]
cell viability [%]
Conditions	0.37037 µM	1.11111 µM	3.33333 µM	10 µM	30 µM
plate partner (at 0 µM): Cabazitaxel	88.4	85.5	79.4	57.9	10.2
plate partner (at 0 µM): Vincristine	100	95	78.9	58.1	16.6
plate partner (at 0 µM): ixabepilone	110	104	83.2	60.5	2.09

CNS(=O)(=O)Cc1ccc2[nH]cc(CCN(C)C)c2c1 [Sumatriptan (succinate)]
plate partner (at 0 µM): Sorafenib
Conditions	cell viability [%]
0.0740741 µM	87.3
0.222222 µM	97.5
0.666667 µM	92.2
2 µM	92.7
6 µM	94

COc1cc2nc(N3CCN(C(=O)C4CCCO4)CC3)nc(N)c2cc1OC (stereo not given) [Terazosin (hydrochloride dihydrate)]
cell viability [%]
Conditions	0.0308642 µM	0.0925926 µM	0.277778 µM	0.833333 µM	2.5 µM
plate partner (at 0 µM): Allopurinol	88.4	93.8	86.3	91.4	82.6
plate partner (at 0 µM): Cabazitaxel	101	107	106	96.5	96.8
plate partner (at 0 µM): Erlotinib	104	106	103	104	98.7
plate partner (at 0 µM): ixabepilone	121	113	105	104	99.4

Cn1c(=O)c2nc[nH]c2n(C)c1=O [Theophylline]
plate partner (at 0 µM): Imiquimod
Conditions	cell viability [%]
0.123457 µM	107
0.37037 µM	109
1.11111 µM	107
3.33333 µM	100
10 µM	99

CN(C)CCOc1ccc(/C(=C(/CCCl)c2ccccc2)c2ccccc2)cc1 [Toremifene (citrate)]
cell viability [%]
Conditions	0.432099 µM	1.2963 µM	3.88889 µM	11.6667 µM	35 µM
plate partner (at 0 µM): Mitoxantrone	94.8	95	85.3	33.5	2.28
plate partner (at 0 µM): Vinblastine	95.4	89.3	77.2	20	1.28
plate partner (at 0 µM): Vincristine	93.9	87.1	80.1	43.7	2.92

CC(C)C[C@@H](C(=O)N[C@H](C(=O)OC1CCCC1)c1ccccc1)[C@H](O)C(=O)NO [Tosedostat]
cell viability [%]
Conditions	0.246914 µM	0.740741 µM	2.22222 µM	6.66667 µM	20 µM
plate partner (at 0 µM): Crizotinib	90.6	94	86.1	81.4	63.6
plate partner (at 0 µM): Pazopanib	74.3	70.3	64.9	63.1	50.8

CN1CCN(CCCN2c3ccccc3Sc3ccc(C(F)(F)F)cc32)CC1 [Trifluoperazine 2HCl]
cell viability [%]
Conditions	plate partner (at 0 µM): Erlotinib	plate partner (at 0 µM): Imatinib	plate partner (at 0 µM): Megestrol	plate partner (at 0 µM): Mitoxantrone	plate partner (at 0 µM): Pazopanib	plate partner (at 0 µM): Vemurafenib	plate partner (at 0 µM): Vincristine
0.185185 µM	91.2	85.2	110	82.74	94.1	105	110
0.555556 µM	85.8	78.8	105	86.5	89.8	110	102
1.66667 µM	86.2	79.7	104	73.8	86.7	122	101
5 µM	78.5	61.4	101.1	28.3	17.1	97.5	89.9
15 µM	9.16	2.7	9.06	2.29	0.532	18.2	21.5

Cc1onc(-c2ccccc2)c1-c1ccc(S(N)(=O)=O)cc1 [Valdecoxib]
plate partner (at 0: 5-Fluorouracil µM
Conditions	cell viability [%]
0.17284 µM	90
0.518519 µM	99.8
1.55556 µM	95.2
4.66667 µM	88.2
14 µM	78.7

COc1cc2nccc(Oc3ccc(NC(=O)NC4CC4)c(Cl)c3)c2cc1C(N)=O [lenvatinib Mesylate]
plate partner (at 0 µM): Paclitaxel
Conditions	cell viability [%]
0.277778 µM	106
0.833333 µM	107
2.5 µM	105
7.5 µM	91.7
22.5 µM	58.7

Where a name gives a salt, the structure may show the parent alone. Several reference drugs read as weak here; read low effects with care.
